{"source": "PubChem BioAssay AID1347076", "about": "(National Center for Advancing Translational Sciences (NCATS), 2019)", "note": "About 13,000 (3.2%) of roughly 400,000 compounds were called active. Inconclusive results, whose numbers are uncertain, are shown with a selection of clear calls. The call rests on the fitted dose curve; in most records, active means well fitted cell-killing curve with a large enough effect; inconclusive means small, poorly fitted or top-dose-only effect, or effect the other way; inactive means flat fitted curve, though single readings scatter. Potencies of inconclusive entries are doubtful fits and often do not repeat. On the % scale 0 is the no-effect control and ±100 the full control effect; potency means the concentration at half of the fitted maximal effect."}
{"test": "qHTS assay for MDR1-selective chemotherapeutics: Primary screen using the drug-selected MDR subline cells KB-V1; further: nearly all actives have a fitted effect of over 60% in size", "conditions": "KB-V1 MDR cells viability, CellTiter-Glo, 72 h; activity change, negative = cytotoxicity: at 46.1 µM (top of the series)", "outline": "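Luminescent ATP read-out (CellTiter-Glo, 10 min) measures survival of drug-selected KB-V1 MDR cells after 72 h, 37 degrees C compound exposure. Medium: phenol-red-free DMEM, 10% FBS. Values from fitted concentration-response curves.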"}
{"smiles": "Cc1cccc(NC(=O)Cn2cccc2)c1", "Potency": "inconclusive: 29.1 µM [cytotoxic, single point]"}
{"smiles": "Cc1ccc(S(=O)(=O)N2[C@H](CC(=O)c3cccc4ccccc34)OC[C@@H]2C)cc1", "Potency": "inconclusive: 23.1 µM [cytotoxic, partial curve, poor fit]"}
{"smiles": "COc1ccc(-c2ccc(CN3C(CC(C)C)C(=O)N(Cc4cn(CC5CCCCC5)nn4)CCS3(=O)=O)cc2)cc1", "note": "(configuration not stated)", "Potency": "inconclusive: 29.1 µM [cytotoxic, single point]"}
{"smiles": "CCOC(=O)c1cc(S(=O)(=O)N2CCN(C3CCCCC3)CC2)cn1C", "Potency": "inconclusive: 9.2 µM [cytotoxic, partial curve, poor fit]"}
{"smiles": "COc1ccc2cc(C(=O)C3CCCN(Cc4cnc(C)s4)C3)ccc2c1", "note": "(configuration not stated)", "Potency": "active: 9.2 µM"}
{"smiles": "CCOc1ccccc1OCCC(=O)NNC(=O)Cn1nc(C)cc1C", "activity change, negative = cytotoxicity": "inactive: 3.49%"}
{"smiles": "O=S(=O)(Nc1ccc(O)c(Sc2nc3ccccc3s2)c1)c1cccc2ccccc12", "Potency": "inconclusive: 16.4 µM [cytotoxic, single point]"}
{"smiles": "Cc1ccc(CN2CC(C(=O)N3CCN(S(=O)(=O)c4c(F)cccc4F)CC3)CC2=O)cc1", "note": "(configuration not stated)", "Potency": "inconclusive: 29.1 µM [cytotoxic, single point]"}
{"smiles": "CCCCNC(=O)CNC(=S)N(Cc1ccc(C)cc1)Cc1ccco1", "Potency": "inconclusive: 7.31 µM [cytotoxic, partial curve]"}
{"smiles": "CCOc1cccc(OCCCOc2cccc3cccnc23)c1", "Potency": "inconclusive: 18.4 µM [cytotoxic, single point]"}
{"smiles": "COc1ccc(S(=O)(=O)Oc2ccc3ccccc3c2)cc1", "Potency": "active: 16.4 µM"}
{"smiles": "COc1ccc(-c2cc(C(F)(F)F)nc(SCC(=O)NCc3cccs3)n2)cc1", "Potency": "active: 18.4 µM"}
{"smiles": "COc1cc2c(cc1OC)C(C(=O)O)C(c1cc(Br)c(O)c(OC)c1)N(C)C2=O", "note": "(configuration not stated)", "Potency": "inconclusive: 0.58 µM [rising, partial curve, poor fit]"}
{"smiles": "Cc1nc2ccc(NC(=S)NCc3ccccc3)cc2nc1C", "Potency": "inconclusive: 29.1 µM [cytotoxic, single point]"}
{"smiles": "CC(=O)c1ccc(-c2cnc3c(NC=O)cc(-c4ccc(C(=O)N5CCOCC5)cc4)cn23)cc1", "Potency": "inconclusive: 29.1 µM [cytotoxic, single point]"}
{"smiles": "CCOC(=O)N1CCN(/C=C(\\C#N)c2nc3ccccc3s2)CC1", "Potency": "active: 23.1 µM"}
{"smiles": "CC1(c2cccc(Br)c2)NC(=O)N(CC(=O)NCCC2=CCCCC2)C1=O", "note": "(configuration not stated)", "Potency": "inconclusive: 29.1 µM [cytotoxic, single point]"}
{"smiles": "NS(=O)(=O)c1ccc(NC(=O)COc2ccc(Cl)cc2)cc1", "activity change, negative = cytotoxicity": "inactive: 10.2%"}
{"smiles": "CC(C)Cn1c(SCC(=O)N2CC(=O)Nc3ccccc32)nc2ccccc21", "Potency": "active: 10.3 µM"}
{"smiles": "CCCn1c(NC(=O)c2ccccc2Br)nc2ccccc21", "Potency": "active: 9.2 µM"}
{"smiles": "S=C(NCCN1CCOCC1)N/N=C/c1c2ccccc2cc2ccccc12", "Potency": "inconclusive: 15.8 µM [cytotoxic, single point]"}
{"smiles": "COc1ccc(C=O)cc1COc1ccccc1F", "Potency": "inconclusive: 2.91 µM [cytotoxic, full curve]"}
{"smiles": "COc1cccc(-c2cccc(-c3nc(C(=O)NCc4ccc5c(c4)OCO5)cc4c3[C@H](CCO)N(S(=O)C(C)(C)C)C4)c2)c1", "note": "(some centres not stated)", "activity change, negative = cytotoxicity": "inactive: -0.205%"}
{"smiles": "COc1ccc(CN2C(=O)C(CC(=O)NCC3CCCCC3)CC(C(=O)N3CCOCC3)=C2C)cc1", "note": "(configuration not stated)", "activity change, negative = cytotoxicity": "inactive: -16.4%"}
{"smiles": "Cc1ccc(-c2cc(C(=O)NCc3ccccn3)c3ccccc3n2)cc1C", "Potency": "active: 14.6 µM"}
{"smiles": "O=C(Cn1nc(Cc2cccnc2)c2ccccc2c1=O)NCc1ccc(F)cc1", "activity change, negative = cytotoxicity": "inactive: 0.178%"}
{"smiles": "Cc1cccc(Oc2nc3ccccn3c(=O)c2/C=C(\\C#N)c2nc3ccccc3s2)c1C", "activity change, negative = cytotoxicity": "inactive: 3.22%"}
{"smiles": "COc1ccc(-n2c3c(c(=O)[nH]c2=O)C(NC(C)=O)(C(F)(F)F)C(=O)N3)cc1", "note": "(configuration not stated)", "Potency": "inconclusive: 29.1 µM [rising, single point]"}
{"smiles": "COC(=O)C(Nc1ccccc1Cl)(c1cc(C)c(O)c(C)c1)C(F)(F)F", "note": "(configuration not stated)", "Potency": "active: 8.2 µM"}
{"smiles": "COC(=O)c1ccc(/C=C2\\Oc3ccccc3NC2=O)cc1", "Potency": "inconclusive: 8.2 µM [rising, partial curve]"}
{"smiles": "O=C(Nc1ccc(F)cc1)Nc1nnc(COc2ccccc2F)s1", "Potency": "inconclusive: 18.4 µM [cytotoxic, single point]"}
{"smiles": "C/C(=N\\NC(=O)C1(C)CC1(Br)Br)c1cccc(NC(=O)c2ccc(C)o2)c1", "note": "(configuration not stated)", "Potency": "inconclusive: 18.4 µM [cytotoxic, single point]"}
{"smiles": "COc1nc(N)nc(NC(=O)c2cccs2)c1N=O", "activity change, negative = cytotoxicity": "inactive: 13.7%"}
{"smiles": "COc1ccc(/C=C/C(=O)OC2CCCCC2CN(C)C)cc1", "note": "(configuration not stated)", "activity change, negative = cytotoxicity": "inactive: -8.11%"}
{"smiles": "OC(c1ccc(F)cc1)c1nc(-c2ccc(F)c(Cl)c2)cs1", "note": "(configuration not stated)", "activity change, negative = cytotoxicity": "inactive: 2.48%"}
{"smiles": "COc1ccc(CCNC(=O)c2ccc3c(c2)CCN3S(=O)(=O)c2ccc(Cl)cc2)cc1", "Potency": "inconclusive: 2.59 µM [cytotoxic, full curve]"}
{"smiles": "Cc1cccc(NC(=O)CCS(=O)(=O)c2ccc3c(c2)NC(=O)CS3)n1", "Potency": "inconclusive: 20.6 µM [rising, single point]"}
{"smiles": "Nc1ccn(CCCN2CCN(C(=O)C3CC3)CC2)c(=O)n1", "Potency": "inconclusive: 29.1 µM [rising, partial curve, poor fit]"}
{"smiles": "COc1ccc(-c2[nH]c(-c3ccc(C)cc3)nc2SCC(=O)NCc2ccco2)cc1OC", "activity change, negative = cytotoxicity": "inactive: 2.41%"}
{"smiles": "Cc1ccc(C)c(NC(=S)N2CCC(NC(=O)c3cccc(F)c3)CC2)c1", "Potency": "inconclusive: 5.17 µM [cytotoxic, partial curve]"}
{"smiles": "CCC1=Nc2cc(C(=O)NCCCOC)ccc2Sc2ccccc21", "Potency": "active: 0.231 µM"}
{"smiles": "COc1ccc(S(=O)(=O)N(C)C[C@H]2Oc3cc(Br)ccc3S(=O)(=O)N([C@H](C)CO)C[C@H]2C)cc1", "Potency": "inconclusive: 32.6 µM [cytotoxic, single point]"}
{"smiles": "CCOc1ccc(NC(=O)Nc2cccs2)cc1", "activity change, negative = cytotoxicity": "inactive: -13.5%"}
{"smiles": "COc1cc(CN2CCC(N3CCC(C(=O)N4CCCC4)CC3)CC2)cc2c1OCO2", "activity change, negative = cytotoxicity": "inactive: -9.24%"}
{"smiles": "O=C(c1cccc(F)c1)N1CCN(Cc2ccc3c(c2)OCO3)CC1", "activity change, negative = cytotoxicity": "inactive: -21.4%"}
{"smiles": "Nc1nc(-c2ccc(Cl)cc2)nnc1-c1ccc(Br)cc1", "activity change, negative = cytotoxicity": "inactive: 8.98%"}
{"smiles": "Cc1ccc(-c2nnc(Nc3ccc(CC(N)=O)cc3)c3ccccc23)cc1S(=O)(=O)NCCO", "Potency": "inconclusive: 29.1 µM [rising, single point]"}
{"smiles": "COc1cc(OC)c(/C=N/NC(=O)c2ccncc2)c(OC)c1", "Potency": "inconclusive: 14.6 µM [rising, partial curve, poor fit]"}
{"smiles": "Cc1cc(=S)n(-c2ccccc2)n1C", "Potency": "inconclusive: 16.4 µM [rising, partial curve, poor fit]"}
{"smiles": "COc1cc(-c2nc3cnccn3c2Nc2c(C)cccc2C)ccc1O", "activity change, negative = cytotoxicity": "inactive: 25.5%"}
{"smiles": "CC(=NCCc1c(C)[nH]c2ccc(C)cc12)C1=C(O)CC(c2ccccc2)CC1=O", "note": "(configuration not stated)", "Potency": "active: 5.8 µM"}
{"smiles": "COc1cc(OC)c(N(C)S(=O)(=O)c2cccc(C(=O)NCc3cccs3)c2)cc1Cl", "activity change, negative = cytotoxicity": "inactive: -4.53%"}
{"smiles": "COc1c(Cl)cc(C(=O)Nc2cccc(-c3nc4ccccc4[nH]3)c2)cc1Cl", "Potency": "active: 20.6 µM"}
{"smiles": "CC(=O)c1ccc(NC2=NS(=O)(=O)c3ccccc32)cc1", "Potency": "inconclusive: 0.651 µM [rising, full curve, poor fit]"}
{"smiles": "O=C(NCc1ccco1)/C(=C\\c1ccco1)NC(=O)c1ccc(Br)o1", "Potency": "inconclusive: 25.9 µM [rising, partial curve, poor fit]"}
{"smiles": "CCN1CCN(C(=O)c2ccc3c(=O)n(CCC4=CCCCC4)c(=O)[nH]c3c2)CC1", "Potency": "inconclusive: 7.31 µM [cytotoxic, partial curve, poor fit]"}
{"smiles": "O=C(Nc1nnc(S(=O)(=O)N2CCCCCC2)s1)c1ccc(Br)cc1", "Potency": "inconclusive: 23.1 µM [rising, partial curve, poor fit]"}
{"smiles": "Cc1cc(C(=O)Cn2ncc(Cl)c(Cl)c2=O)c(C)n1CC(F)(F)F", "Potency": "inconclusive: 20.6 µM [cytotoxic, single point]"}
{"smiles": "COc1ccc(-c2c(NC(=O)c3ccco3)n(C)c3ccccc3c2=O)cc1", "activity change, negative = cytotoxicity": "inactive: 6.24%"}
{"smiles": "C=C(C(=O)c1ccccc1)C(CC(=O)c1ccccc1)c1ccccc1", "note": "(configuration not stated)", "Potency": "inconclusive: 16.4 µM [cytotoxic, single point]"}
{"smiles": "COc1cc(Cl)c(C)cc1NC(=O)c1cc(CN2CCOCC2)on1", "activity change, negative = cytotoxicity": "inactive: -0.74%"}
{"smiles": "CCOC(=O)C1(C)CCCN1C(=O)c1csnn1", "note": "(configuration not stated)", "activity change, negative = cytotoxicity": "inactive: -1.63%"}
{"smiles": "O=C(CN1CCN(Cc2ccccc2)CC1)NCc1ccccc1Cl", "activity change, negative = cytotoxicity": "inactive: -0.897%"}
{"smiles": "COc1ccc(NS(=O)(=O)c2cc(NC(=O)C3CCCO3)ccc2N2CCCCC2)cc1", "note": "(configuration not stated)", "Potency": "inconclusive: 4.61 µM [cytotoxic, full curve]"}
{"smiles": "O=C(O)CCN(Cc1ccccc1)S(=O)(=O)c1ccc(Cl)cc1F", "Potency": "inconclusive: 16.4 µM [rising, partial curve]"}
{"smiles": "Cc1nn(Cc2ccccc2)c(C)c1NC(=O)CCCn1nc(C)c([N+](=O)[O-])c1C", "Potency": "active: 23.1 µM"}
{"smiles": "Clc1ncc(CN2CCN(c3ccccc3)CC2)s1", "activity change, negative = cytotoxicity": "inactive: -1.13%"}
{"smiles": "O=C(NCc1ccccc1Cl)C(=O)NCC1OCCN1S(=O)(=O)c1cccs1", "note": "(configuration not stated)", "Potency": "inconclusive: 16.4 µM [cytotoxic, single point]"}
{"smiles": "O=C(CCN1CCN(c2ccccc2)CC1)c1ccc(Br)cc1", "activity change, negative = cytotoxicity": "inactive: 0%"}
{"smiles": "CCc1ccccc1NC(=O)CN1CCN(C(=O)CNC(=O)Cc2cccc3ccccc23)CC1", "Potency": "inconclusive: 23.1 µM [cytotoxic, single point]"}
{"smiles": "CCCNC(=O)C12CCC(C)(C(=O)C1Br)C2(C)C", "note": "(configuration not stated)", "activity change, negative = cytotoxicity": "inconclusive: -21.6%"}
{"smiles": "Cc1cccc(C)c1NC(=O)C1(N2CCN(C(=O)c3ccco3)CC2)CCCCC1", "Potency": "inconclusive: 5.8 µM [cytotoxic, partial curve, poor fit]"}
